The list shows a part of the results. These are further read-outs of the screen, such as a control signal, another cell line or another target. No call is given for them. Compounds called inactive in the main read-out are mostly missing here. The note in brackets gives the kind of curve behind each potency; many fits are weak.
Assay: qHTS Assay for Lipid Storage Modulators in Drosophila S3 Cells;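 for cell number change: cells counted by Cell Tracker Red CMTPX staining in the red channel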
Conditions: BODIPY lipid droplet fluorescence, 18-24 h; for cell number change: measured here: cell count max response, cells fed with added oleic acid
How it was run: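 Laser-scanning cytometry quantifies lipid droplet accumulation (500–530 nm total intensity; droplet/cell object ratio) in oleic acid-fed (400 uM added) Drosophila S3 cells treated with a concentration series. 20 uM Triacsin C defined 100% inhibition.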

[1] = measured here: lipid fluorescence (Fed channel) AC50, cells fed with added oleic acid
[2] = measured here: cell number channel AC50, cells fed with added oleic acid

Row | SMILES | cell number change [%] | AC50 [1] | AC50 [2]
1 | C#Cc1cccc(C(=O)NC2CCCN(C3Cc4ccccc4C3)C2)c1 (stereo not given) | -3.67 | 6.51 µM [rising, single point] | 
2 | Clc1cccc(Cl)c1COn1nnc2ccccc21 | 124 | 20.6 µM [rising, partial curve] | 16.4 µM [rising, partial curve]
3 | CCN(Cc1ccccc1)C(=O)Cn1c(C(C)O)nc2ccccc21 (stereo not given) | 9.91 | 6.51 µM [rising, partial curve, poor fit] | 2.59 µM [rising, partial curve, poor fit]
4 | COc1ccc(NC(=O)CCNC(=O)c2ccco2)c(OC)c1 | 39.1 |  | 
5 | CCCCN1C(=O)C(=O)N(CC(=O)Nc2cc(Cl)ccc2OC)C1=O | -34.3 | 8.2 µM [falling, partial curve] | 8.2 µM [falling, partial curve, poor fit]
6 | CCCC1S/C(=N/N=C/c2ccc(C)cc2)N(Cc2ccc(OC)cc2)C1=O (stereo not given) |  | 4.11 µM [rising, full curve] | 3.26 µM [rising, partial curve, poor fit]
7 | Cc1cc(C)c2[nH]c(=S)cc(C)c2c1 | 24.1 |  | 
8 | CC(NC(=O)Nc1ncccn1)(C(F)(F)F)C(F)(F)F | 4.63 | 0.13 µM [rising, full curve, poor fit] | 
9 | CCCOc1c(Br)cc(C(=O)OCC(=O)NC2CC2)cc1OC |  | 2.31 µM [rising, partial curve] | 
10 | CC(=O)N1CCN(C(=O)c2ccc(-c3cccc(C(F)(F)F)c3)o2)CC1 | 42 | 7.31 µM [rising, partial curve] | 4.61 µM [rising, full curve]
11 | O=C(CCNC(=O)C1CCN(S(=O)(=O)c2ccc(F)cc2)CC1)NCc1ccncc1 | 16.5 |  | 
12 | CC(=O)C1=C(O)C(=O)N(CCN(C)C)C1c1ccc(Cl)cc1 (stereo not given) | -15.1 | 23.1 µM [falling, partial curve, poor fit] | 
13 | O=C(c1cc2ccccc2cc1O)N1CCCC(C(F)(F)F)C1 (stereo not given) | 7.57 |  | 
14 | O=C(NCCc1cnccn1)C1CCC(=O)N(Cc2ccc(Cl)cc2)C1 (stereo not given) | 20.5 | 23.1 µM [rising, single point] | 
15 | CCN(C(=O)COC(=O)Cc1cccc2ccccc12)C1CCS(=O)(=O)C1 (stereo not given) | 0.94 | 0.291 µM [rising, partial curve, poor fit] | 
16 | O=C(c1ccc2c(=O)n3c(nc2c1)CCCCC3)N1CCN(C(c2ccccc2)c2ccccc2)CC1 | 24.8 |  | 
17 | Cc1ccc(C(C)C)c(OCC(=O)Nc2ccc(N3CCOCC3)cc2N2CCOCC2)c1 | 51 |  | 6.51 µM [rising, full curve]
18 | CC(=O)/C(=N/Nc1ccccc1)N1CCOCC1 | 53.4 | 29.1 µM [rising, single point] | 29.1 µM [rising, single point]
19 | COC(=O)C1CN(C(=O)c2cccc(OC(F)F)c2)c2ccccc2O1 (stereo not given) | -10.5 |  | 

Structural class: the compounds so far containing a halogen (ten)
Row | SMILES | cell number change [%] | AC50 [1] | AC50 [2]
2 | Clc1cccc(Cl)c1COn1nnc2ccccc21 | 124 | 20.6 µM [rising, partial curve] | 16.4 µM [rising, partial curve]
5 | CCCCN1C(=O)C(=O)N(CC(=O)Nc2cc(Cl)ccc2OC)C1=O | -34.3 | 8.2 µM [falling, partial curve] | 8.2 µM [falling, partial curve, poor fit]
8 | CC(NC(=O)Nc1ncccn1)(C(F)(F)F)C(F)(F)F | 4.63 | 0.13 µM [rising, full curve, poor fit] | 
9 | CCCOc1c(Br)cc(C(=O)OCC(=O)NC2CC2)cc1OC |  | 2.31 µM [rising, partial curve] | 
10 | CC(=O)N1CCN(C(=O)c2ccc(-c3cccc(C(F)(F)F)c3)o2)CC1 | 42 | 7.31 µM [rising, partial curve] | 4.61 µM [rising, full curve]
11 | O=C(CCNC(=O)C1CCN(S(=O)(=O)c2ccc(F)cc2)CC1)NCc1ccncc1 | 16.5 |  | 
12 | CC(=O)C1=C(O)C(=O)N(CCN(C)C)C1c1ccc(Cl)cc1 (stereo not given) | -15.1 | 23.1 µM [falling, partial curve, poor fit] | 
13 | O=C(c1cc2ccccc2cc1O)N1CCCC(C(F)(F)F)C1 (stereo not given) | 7.57 |  | 
14 | O=C(NCCc1cnccn1)C1CCC(=O)N(Cc2ccc(Cl)cc2)C1 (stereo not given) | 20.5 | 23.1 µM [rising, single point] | 
19 | COC(=O)C1CN(C(=O)c2cccc(OC(F)F)c2)c2ccccc2O1 (stereo not given) | -10.5 |  | 

(further entries)

Row | SMILES | cell number change [%] | AC50 [1] | AC50 [2]
20 | C=CCc1ccc(O)c(-c2cc(CC=C)ccc2O)c1 | -37 | 29.1 µM [falling, single point] | 20.6 µM [falling, single point]
21 | O=C(CN1C(=O)COc2ccc(Cl)cc21)N1CCc2ccccc21 |  |  | 6.51 µM [rising, single point]
22 | COc1cccc(C2C(C(C)=O)=C(O)C(=O)N2CCc2c[nH]c3ccccc23)c1 (stereo not given) | -24.1 |  | 2.59 µM [falling, full curve, poor fit]
23 | Cn1c(=O)c2c(ncn2CC(=O)NC(C)(C)C)n(C)c1=O | 2.36 |  | 
24 | Cn1nccc1NC(=O)Nc1ccccc1 | -20.7 | 18.4 µM [falling, single point] | 0.116 µM [falling, full curve, poor fit]
25 | O=C(Nc1cc(S(=O)(=O)Nc2ccc(Cl)cc2)ccc1N1CCCCC1)c1ccc(F)cc1Cl | -18.5 |  | 
26 | CC(C)(C)n1nc2c(c1NC(=O)c1cc3ccccc3o1)CSC2 | 29.2 |  | 
27 | COC(=O)c1ccc(OCC(=O)NC2CCCCCC2)cc1 | 9.69 | 0.0184 µM [falling, full curve] | 
28 | COc1cc(C(=O)NCCOc2ccccc2)c(Br)c(OC)c1OC | 102 | 3.26 µM [falling, partial curve] | 7.31 µM [falling, partial curve, poor fit]
29 | COC(=O)C(C)N1C(=O)S/C(=C/c2cc(C)n(C(C)C)c2C)C1=O (stereo not given) | 55.7 | 0.291 µM [rising, full curve] | 0.82 µM [rising, partial curve]
30 | O=C(Nc1ccc(S(=O)(=O)Nc2ncccn2)cc1)c1cnc(Cl)c(Cl)c1 | -38.5 | 4.11 µM [falling, full curve] | 0.517 µM [falling, full curve]
31 | O=C(O)c1cc(C(=O)C2CCCCC2)c[nH]1 |  | 0.58 µM [rising, single point] | 6.51 µM [rising, single point]
32 | C=CCn1c(SCC(=O)c2ccc(Br)cc2)nnc1C(CC(C)C)NC(=O)c1cccs1 (stereo not given) | 35 | 29.1 µM [rising, single point] | 29.1 µM [rising, single point]
33 | COCC(C)n1c(SCC(=O)NC(=O)Cc2ccccc2)nc2ccccc2c1=O (stereo not given) | -15 |  | 
34 | Cc1ccc(NC(=O)CCl)c(C)c1 | 25.1 | 2.91 µM [rising, single point] | 2.91 µM [rising, single point]
35 | CCCC(C(=O)NC1CCCC1)N(Cc1ccc(OC)cc1)C(=O)c1snc(C(N)=O)c1N (stereo not given) | -2.17 | 1.84 µM [falling, partial curve] | 
36 | CCOC(=O)CN(C(=O)c1ccccc1)c1ccccc1C | 13 | 11.6 µM [rising, partial curve, poor fit] | 
37 | C=CCNC(=S)NNC(=O)c1ccccc1OCC | 26.8 | 25.9 µM [rising, partial curve] | 
38 | Nc1nonc1-n1nnc(C(=O)N/N=C/c2cc(Br)cs2)c1-c1ccccc1 | 25.2 |  | 

Row | SMILES | cell number change [%] | AC50 [1] | AC50 [2]
39 | CCOC(=O)[C@H]1[C@H]2COc3ccc(Cl)cc3[C@@H]2N2C(=O)c3ccc(F)cc3NC(=O)[C@@]12C | -0.726 | 0.164 µM [falling, partial curve, poor fit] | 6.51 µM [falling, single point]
40 | COc1c(Cl)cc(Cl)cc1C(=O)Nc1ccc(NC(=O)c2cccs2)cc1 | -3.07 | 0.651 µM [falling, single point] | 0.731 µM [falling, single point]
41 | CC(C)c1ccc(NC(=O)CNC(=O)Cn2ccc3ccccc3c2=O)cc1 | -8.11 | 29.1 µM [falling, single point] | 
42 | Cc1cc(OCC(=O)NNC(=O)c2cccs2)ccc1Br | -5.26 |  | 0.00517 µM [rising, full curve, poor fit]
43 | CN(C)S(=O)(=O)c1cc(NC(=O)CN2C(=O)NC3(CCCc4ccccc43)C2=O)ccc1Cl (stereo not given) | -38.6 |  | 29.1 µM [falling, single point]
44 | Cc1cc(C)c(NC(=O)CN(C)S(=O)(=O)c2ccc3c(c2)n(C)c(=O)c(=O)n3C)c(C)c1 | 21.5 |  | 
45 | Cc1ccc(C(=O)N2CCN(c3ccc(N4CCOCC4)nn3)CC2)cc1 | 2.62 |  | 0.13 µM [falling, full curve, poor fit]
46 | COc1ccccc1-c1cc(C(=O)N2CCOCC2)no1 | 15.7 | 0.58 µM [falling, single point] | 
47 | COC(=O)c1[nH]c2ccccc2c1NC(=O)c1ccccc1[N+](=O)[O-] | -35 | 0.0058 µM [falling, full curve, poor fit] | 2.59 µM [falling, partial curve, poor fit]
48 | CN(C(=O)c1ccc(Cl)c([N+](=O)[O-])c1)C1(C)CCS(=O)(=O)C1 (stereo not given) | -25.1 | 0.231 µM [falling, full curve] | 
49 | O=[N+]([O-])c1ccccc1S(=O)(=O)N1CCN(Cc2cc3c(cc2O)OCO3)CC1 | 14.1 |  | 
50 | CCN(CC(=O)Nc1ccc(C(C)=O)cc1)CC(=O)Nc1ccccc1C(F)(F)F | -2.89 |  | 
51 | Cc1ccccc1OCCn1cc(C=O)c2ccccc21 |  | 6.51 µM [falling, partial curve] | 
52 | CC1CCCC(C)N1/N=C/c1cc(Br)c(O)c(Br)c1 (stereo not given) | -10.6 | 0.731 µM [falling, single point] | 0.092 µM [falling, full curve, poor fit]
53 | Cc1ccc(C(=O)O)cc1-n1c(C)cc(C=O)c1C | 15.7 | 0.103 µM [rising, full curve, poor fit] | 
54 | COc1ccc(S(=O)(=O)N2CCCCCC2)cc1C(=O)N(C)Cc1ccc(Cl)cc1Cl |  | 2.91 µM [rising, full curve] | 2.91 µM [rising, single point]
55 | COc1ccc(C(=O)NC(C)c2ccncc2)cc1S(=O)(=O)N(C)Cc1ccccc1 (stereo not given) | 9.15 | 0.092 µM [falling, full curve, poor fit] | 
56 | CC1(c2ccc3c(c2)OCCO3)NC(=O)N(CC(=O)Nc2c(F)cccc2F)C1=O (stereo not given) | -32.7 | 0.116 µM [falling, full curve, poor fit] | 0.116 µM [falling, full curve, poor fit]
57 | CCCCc1ccc(-c2ccc(C)cc2O)nc1 | 23.5 | 0.146 µM [rising, full curve, poor fit] | 0.206 µM [rising, full curve, poor fit]

2 entries picked at random from those above, as already listed:
Row | SMILES | cell number change [%] | AC50 [1] | AC50 [2]
51 | Cc1ccccc1OCCn1cc(C=O)c2ccccc21 |  | 6.51 µM [falling, partial curve] | 
42 | Cc1cc(OCC(=O)NNC(=O)c2cccs2)ccc1Br | -5.26 |  | 0.00517 µM [rising, full curve, poor fit]
